# In all, about 300,000 compounds went through this assay and about 5,400 (1.8%) were called active. Inconclusive results, whose numbers are uncertain, are shown with a selection of clear calls. The call rests on the fitted dose curve; tested in HEK293 cells. Where the call is inconclusive, the potency comes from a doubtful curve fit.
# Assay: qHTS for inhibitors of binding or entry into cells for Marburg Virus
# Settings: Marburg virus pseudotyped entry inhibition, cell reporter; series mostly up to 37.8 µM
# Potency means the concentration at half of the fitted maximal effect.
row,Compound,Potency
1,Cc1cccc(N(CC(=O)NCCc2ccccc2)S(=O)(=O)c2ccccc2)c1C,inactive
2,Cc1ccc(CNC(=O)c2ccc(Cl)c(S(N)(=O)=O)c2)n1C,"inconclusive: 1.41 µM [inhibitor, partial curve]"
3,C/C(CCC12CC3CC(CC(C3)C1)C2)=N\NC(N)=S,inactive
4,COc1ccc(N(CC(=O)Nc2ccc(Cl)cc2C)S(=O)(=O)c2ccccc2)c(OC)c1,"inconclusive: 10 µM [inhibitor, partial curve, poor fit]"
5,CCCCCC(=O)Nc1c(-c2ccc(OC)cc2)c(=O)c2ccccc2n1C,inactive
6,COc1cc(-c2nnc(SCC(=O)N3CCCc4ccccc43)o2)cc(OC)c1OC,inactive
7,CCN(CC)S(=O)(=O)c1ccc2c(c1)N(CC(=O)N1CCCC1)C(=O)CO2,"inconclusive: 7.08 µM [activator, full curve, poor fit]"
8,COc1ccc(-c2[nH]ncc2/C=N\NC(=O)c2ccc(C(C)(C)C)cc2)cc1OC,"inconclusive: 0.126 µM [inhibitor, full curve, poor fit]"
9,CN(C(=O)c1ccc2c(c1)CCO2)C(C)(C)C,inactive
10,CC1(C)C2CCC1(C)C1(C2)NC(=O)c2ccccc2O1 (stereo not drawn),inactive
11,CCOC(=O)C1=C(c2ccc(OC)cc2)C(=O)c2ccccc2C1=O,"inconclusive: 2.82 µM [inhibitor, full curve, poor fit]"
12,CCn1c(=O)[nH]c2cc(C(=O)Nc3cc(C)cc(C)c3)ccc2c1=O,"inconclusive: 7.08 µM [inhibitor, partial curve, poor fit]"
13,O=C(C=Cc1ccccc1)c1cc(Br)ccc1O,inactive
14,COc1ccccc1CNc1ncnc2nc[nH]c12,inactive
15,CC(=O)Nc1ccc(N/C=C/C(=O)c2ccc(Cl)cc2)cc1,inactive
16,CC1=CN2C(=N)/C(=C/c3ccco3)C(=O)N=C2S1,"inconclusive: 0.562 µM [activator, partial curve, poor fit]"
17,CCOC(=O)C1=C(C)NC(=O)NC1c1cccc(O)c1 (stereo not drawn),inactive
18,Cc1cccc(C)c1OCC(=O)Nc1cccc(S(=O)(=O)N2CCCC2)c1,"inconclusive: 0.316 µM [inhibitor, full curve]"
19,COc1cccc(CNc2ccc3c(c2)ncn3C)c1OC,inactive
20,Cc1nc2cc3nc(C(F)(F)F)[nH]c3cc2[nH]1,"inconclusive: 0.0411 µM [inhibitor, full curve, poor fit]"
21,Cc1cc(NC(=O)COC(=O)c2oc3c(ccc4ccccc43)c2C)no1,"inconclusive: 8.91 µM [inhibitor, single point]"
22,CCOC(=O)CSc1nnc(C)c(=O)[nH]1,inactive
23,Cc1cccc(CSCCNC(=O)CN2C(=O)c3ccccc3S2(=O)=O)c1,inactive
24,CCOC(=O)c1cc(-c2ccc3c(c2)OCCO3)nc2c1c(C)nn2CCC#N,"inconclusive: 14.1 µM [inhibitor, partial curve, poor fit]"
25,O=C(c1ccc(S(=O)(=O)N2CCCCC2)cc1)N1CCCC(C(F)(F)F)C1 (stereo not drawn),inactive

row,Compound,Potency
1,NC(=O)Cc1nc(-c2ccc([N+](=O)[O-])cc2)cs1,inactive
2,COCCn1c(=O)c2ccccc2c2ccccc2c1=O,"inconclusive: 35.5 µM [activator, single point]"
3,O=P(Nc1cccc(Cl)c1)(Oc1ccccc1)Oc1ccccc1,"inconclusive: 11.2 µM [inhibitor, partial curve]"
4,CCS(=O)(=O)c1ccc(O)c(NC(=O)Nc2cccc3ccccc23)c1,inactive
5,CC(Cc1ccccc1)NCC(=O)Nc1cc(N(C)C)nc2ccccc12 (stereo not drawn),"inconclusive: 1 µM [inhibitor, partial curve, poor fit]"
6,O=C(NC1(C(F)(F)F)Oc2ccccc2O1)N1CCCC1,"inconclusive: 0.206 µM [inhibitor, full curve, poor fit]"
7,Clc1cccc(Cl)c1CSc1nnc([C@@H]2CCCN2)o1,inactive
8,CN1[C@@H]2CC[C@H]1CC(OC(=O)c1c[nH]c3ccccc13)C2 (stereo partly drawn),"inconclusive: 0.259 µM [inhibitor, single point]"
9,CCOC(=O)C1CSCCS(=O)(=O)N1Cc1cc(F)ccc1Br (stereo not drawn),"inconclusive: 0.0887 µM [activator, full curve, poor fit]"
10,CC(C)(C)N1C(=O)[C@H]2[C@H]3[C@H](O)[C@H](O)C/C(=N\OCc4ccccc4)[C@H]3CC[C@H]2C1=O,inactive
11,O=C(c1csc2ccccc12)N1CCN(c2ccc(Cl)c(Cl)c2)CC1,"inconclusive: 20.6 µM [inhibitor, single point]"
12,COc1ccc(C(=O)O/N=C(\N)c2ccc(OC)c(OC)c2)c(OC)c1,inactive
13,CCc1ccc2[nH]c3nc(SCC(=O)NNC(=O)c4ccc(C(C)(C)C)cc4)nnc3c2c1,active: 4.61 µM
14,CC(=O)c1cccc(NC(=O)NC(C)C2CCCO2)c1 (stereo not drawn),inactive
15,O=C(Nc1ccccc1)c1ccc(S(=O)(=O)NCc2ccco2)cc1,"inconclusive: 1.58 µM [activator, partial curve, poor fit]"
16,Cc1ccccc1OCCC(=O)Nc1ccc(F)c(Cl)c1,"inconclusive: 23.1 µM [inhibitor, single point]"
17,COc1cccc(-c2nn(-c3ccccc3)cc2/C=C\C(=O)c2cccs2)c1,"inconclusive: 15.8 µM [inhibitor, partial curve, poor fit]"
18,CC(C)(C)c1cc(NCCCn2ccnc2)n2ncc(-c3ccccc3)c2n1,"inconclusive: 10 µM [inhibitor, partial curve, poor fit]"
19,COc1ccc(CNC(=O)C2CCCN(S(=O)(=O)N3CCC(C)CC3)C2)c(OC)c1 (stereo not drawn),inactive
20,Cc1ccc(-c2cc(C(F)F)n3ncc(C(=O)N4CCN5CCCC5C4)c3n2)cc1 (stereo not drawn),"inconclusive: 10 µM [inhibitor, partial curve, poor fit]"
21,CC1CN(c2nc3ccccn3c(=O)c2/C=C(\C#N)S(=O)(=O)c2ccccc2)CC(C)O1 (stereo not drawn),inactive
22,CC(C)[C@H](NC(=O)c1ccccc1Cl)C(=O)OCC(=O)Nc1ccc(S(=O)(=O)N2CCOCC2)cc1,"inconclusive: 35.5 µM [activator, single point]"
23,COc1cccc(NC(=S)NNC(=O)c2c([N+](=O)[O-])c(C)nn2C)c1,"inconclusive: 29.1 µM [inhibitor, single point]"
24,O=C(N/N=C/c1cc([N+](=O)[O-])cc([N+](=O)[O-])c1O)/C(=C\c1cccs1)NC(=O)c1ccccc1,"inconclusive: 1 µM [inhibitor, single point]"
25,Nc1c2c3c(sc2nc(=O)n1N)CCCC3,inactive

row,Compound,Potency
1,COCCNc1nc2sc3c(c2c(=O)n1Cc1ccco1)CCCCC3,"inconclusive: 0.891 µM [inhibitor, full curve, poor fit]"
2,CCN(CC)CCOC(=O)c1ccc(NC(=O)CCn2c(=O)oc3ccccc32)cc1,"inconclusive: 6.31 µM [inhibitor, single point]"
3,C=CCn1c(=O)c2c3c(sc2n2c(Nc4ccccc4)nnc12)CCCC3,"inconclusive: 6.31 µM [inhibitor, partial curve]"
4,CCOC(=O)CN(C)C(=O)CCc1nnc(-c2ccsc2)o1,"inconclusive: 11.2 µM [activator, partial curve, poor fit]"
5,O=C1CCCc2c1cc(C(=O)NCc1ccco1)c(=O)n2-c1ccc(Cl)cc1,"inconclusive: 0.92 µM [activator, single point]"
6,Cc1ccc(CNC(=O)N2CCN(C)CC2)cc1,"inconclusive: 6.31 µM [inhibitor, single point]"
7,CC(C)C(Nc1ccc(S(=O)(=O)N2CCOCC2)cc1[N+](=O)[O-])C(=O)O (stereo not drawn),"inconclusive: 8.91 µM [activator, partial curve, poor fit]"
8,Nc1c(C(=O)NCCc2ccccc2)c2nc3ccccc3nc2n1CCN1CCOCC1,"inconclusive: 16.4 µM [inhibitor, single point]"
9,Cc1nnsc1C(=O)Oc1ccccc1Cl,"inconclusive: 3.55 µM [inhibitor, single point]"
10,COc1ccc(-c2csc3nc(-c4cccnc4)nc(Cl)c23)cc1OC,"inconclusive: 0.231 µM [inhibitor, single point]"
11,CC1(C)C(c2ccccc2)=NC(c2ccccc2)N1O (stereo not drawn),inactive
12,O=C1C(c2ccc(C(F)(F)F)cc2)=C(Nc2ccc(Cl)cc2)c2ccccc21,inactive
13,C/C(=N\Nc1ncc(Cl)cc1Cl)c1ccccn1,active: 0.891 µM
14,O=C(COC(=O)Cn1nnc2ccccc21)Nc1ccccc1Br,"inconclusive: 1.26 µM [inhibitor, single point]"
15,O=C(O)c1ccc(Cn2nnc3sc4c(c3c2=O)CCCC4)cc1,inactive
16,O=C(Nc1ccc(Cl)cn1)c1ccc(Oc2ccccc2)cc1,"inconclusive: 6.31 µM [activator, partial curve, poor fit]"
17,Cn1c(=O)c2c(nc3n2CC(CO)O3)n(C)c1=O (stereo not drawn),inactive
18,Cc1ccc(-n2c(=O)c3sccc3n(Cc3cc(=O)n4ccccc4n3)c2=O)cc1,"inconclusive: 31.6 µM [activator, single point]"
19,O=C(CSc1nc(N2CCOCC2)nc(N2CCOCC2)n1)Nc1ccc([N+](=O)[O-])cc1,inactive
20,O=C(NNC(=O)c1ccc2ccccc2c1O)c1ccccc1Cl,inactive
21,CCOC(=O)CSc1nc(N2CCOCC2)c2c(c1C#N)CC(C)(C)N(C)C2,inactive
22,Cc1ccc(C(=O)Nc2cc3c(cc2Cl)OCCCO3)cc1,"inconclusive: 1.12 µM [activator, single point]"
23,CCN(C(=O)Cn1nc(Cc2cccnc2)c2ccccc2c1=O)c1cc(C)ccc1C,inactive

# Five of the compounds above, with bars between the fields:
row | Compound | Potency
3 | C/C(CCC12CC3CC(CC(C3)C1)C2)=N\NC(N)=S | inactive
24 | CCOC(=O)c1cc(-c2ccc3c(c2)OCCO3)nc2c1c(C)nn2CCC#N | inconclusive: 14.1 µM [inhibitor, partial curve, poor fit]
12 | COc1ccc(C(=O)O/N=C(\N)c2ccc(OC)c(OC)c2)c(OC)c1 | inactive
3 | C=CCn1c(=O)c2c3c(sc2n2c(Nc4ccccc4)nnc12)CCCC3 | inconclusive: 6.31 µM [inhibitor, partial curve]
21 | CCOC(=O)CSc1nc(N2CCOCC2)c2c(c1C#N)CC(C)(C)N(C)C2 | inactive

# Source: PubChem BioAssay AID540276 (National Center for Advancing Translational Sciences (NCATS), 2011)
